{"source": "patent US9907307B2", "about": "“Aromatic compound and uses thereof” (SUMITOMO CHEMICAL COMPANY, LIMITED, priority 2014, dated 2018)", "test_system": "cucumber powdery mildew fungus (Sphaerotheca fuliginea, a QoI-resistant strain)", "format": "in vivo", "details": "500 ppm foliar spray, cucumber (SAGAMI HANJIRO), QoI-resistant strain (cytochrome b position 143 glycine to alanine), 8 days after inoculation", "note": "Some of these results come from one statement about several compounds together.", "data": [{"smiles": "COC(=O)Nc1cccc(C)c1COc1ccc(-c2cc(Cl)n(C)n2)cc1C", "note": "[present compound 2]", "values": [{"measurement": "area of lesion relative to that on an untreated plant", "value": "≤ 30", "unit": "%"}]}]}
